Reference: patent US20050278809A1
Results are given in words; binding and its absence hold for the method and conditions named. Binding seen in cells or lysates may run through a third protein. Some results given as binding are weak or reduced against the parent protein; the word gives no strength. Sequences can lack the tags named with a protein.

Tests used:
[1] = molecular target: T1, GST-HDA19 fusion protein (recombinant Arabidopsis thaliana HDA19 fused to glutathione S-transferase) (Arabidopsis thaliana) (UniProt O22446); test: in vitro protein binding assays (GST pulldown)
T1 sequence (looked up): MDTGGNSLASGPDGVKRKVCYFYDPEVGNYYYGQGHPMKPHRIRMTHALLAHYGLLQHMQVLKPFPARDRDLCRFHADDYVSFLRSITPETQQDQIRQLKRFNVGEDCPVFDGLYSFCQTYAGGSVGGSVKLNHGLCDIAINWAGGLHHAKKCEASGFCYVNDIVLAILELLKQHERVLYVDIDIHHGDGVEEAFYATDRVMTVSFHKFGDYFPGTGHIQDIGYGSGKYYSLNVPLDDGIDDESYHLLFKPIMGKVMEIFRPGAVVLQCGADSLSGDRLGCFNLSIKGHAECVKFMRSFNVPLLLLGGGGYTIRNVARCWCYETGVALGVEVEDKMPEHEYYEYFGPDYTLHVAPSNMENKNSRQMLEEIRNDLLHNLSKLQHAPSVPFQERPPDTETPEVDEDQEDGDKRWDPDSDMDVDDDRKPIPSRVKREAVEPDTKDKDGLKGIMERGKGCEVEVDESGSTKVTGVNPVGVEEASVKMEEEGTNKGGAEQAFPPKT

[2] = molecular target: T2, GST-Gcn5 fusion protein (recombinant Arabidopsis HAT Gcn5 fused to glutathione S-transferase) (Arabidopsis) (UniProt Q9AR19); test: in vitro protein binding assays (GST pulldown)
T2 sequence (looked up): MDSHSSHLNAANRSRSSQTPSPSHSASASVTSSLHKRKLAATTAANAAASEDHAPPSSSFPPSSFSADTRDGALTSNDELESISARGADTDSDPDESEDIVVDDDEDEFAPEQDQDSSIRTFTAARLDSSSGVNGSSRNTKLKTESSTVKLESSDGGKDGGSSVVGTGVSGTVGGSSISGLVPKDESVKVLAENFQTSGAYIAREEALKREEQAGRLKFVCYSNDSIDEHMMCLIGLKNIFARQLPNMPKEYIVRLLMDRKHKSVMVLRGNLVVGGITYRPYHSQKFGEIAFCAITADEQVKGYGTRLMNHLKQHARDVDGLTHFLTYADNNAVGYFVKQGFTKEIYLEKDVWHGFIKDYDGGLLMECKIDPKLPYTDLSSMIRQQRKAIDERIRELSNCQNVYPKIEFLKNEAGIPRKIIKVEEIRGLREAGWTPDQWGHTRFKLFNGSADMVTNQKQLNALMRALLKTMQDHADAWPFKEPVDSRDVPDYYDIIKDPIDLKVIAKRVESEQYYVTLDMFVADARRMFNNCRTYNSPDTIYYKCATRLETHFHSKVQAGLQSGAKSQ

[3] = molecular target: T1, GST-HDA19 fusion protein (recombinant Arabidopsis thaliana HDA19 fused to glutathione S-transferase) (Arabidopsis thaliana); test: summary of GST pulldown and yeast two-hybrid results
[4] = molecular target: T2, GST-Gcn5 fusion protein (recombinant Arabidopsis HAT Gcn5 fused to glutathione S-transferase) (Arabidopsis); test: as above
[5] = molecular target: T1, GST-HDA19 fusion protein (recombinant Arabidopsis thaliana HDA19 fused to glutathione S-transferase) (Arabidopsis thaliana); test: GST pulldown, [35S]Met-labelled in vitro translated protein, fluorography
[6] = molecular target: T2, GST-Gcn5 fusion protein (recombinant Arabidopsis HAT Gcn5 fused to glutathione S-transferase) (Arabidopsis); test: as above

Measured: binding

B1: bnKCP1 (B. napus KID-containing protein 1), full-length, in vitro translated (protein)
chain: MAGGGPTFSIELSAYGSDLPTDKASGDIPNEEGSGLSRVGSGIWSGRTVDYSSESSSSIGTPGDSEEEDEESEEDNDEEELGLASLRSLEDSLPSKGLSSHYKGKSKSFGNLGEIGSVKEVPKQENPLNKKRRLQIYNKLARKSFYSWQNPKSMPLLPVHEDNDDEEGDDGDLSDEERGGDVLARRPSFKNRALKSMSCFALSDLQEEEEEEEDE
modifications: labeled with [^35S]methionine
binds: [1] | [2] | [3] | [4] | [5] | [6]
